No constants are given. Whether binding was seen depends on the method and setting. Some entries that bind do so weakly or less than the wild type.

The target of the experiment is streptavidin (UniProt P22629). The experiment can be described thus: peptide array, fluorescence signal of bound streptavidin.
As for GNSFDDWLQKG [control peptide … (SEQ ID NO:6)], the binding entry was “binds”. Regarding VWHPQSGK [control peptide VWHPQSGK (SEQ ID NO:9)], the binding result is recorded as “binds”. As for GFEDYLGEYHG [control peptide … (SEQ ID NO:1)], the entry is “binds”; as for ASWIHPQFQG [control peptide … (SEQ ID NO:8)], “binds”; as for KNTFDEWLQKG [control peptide … (SEQ ID NO:15)], “binds”. As for ASWVHPQFQN [control peptide … (SEQ ID NO:16)], the entry is “binds”. Under ASWCHPQGPC [control peptide … (SEQ ID NO:4)] stands “binds”. Regarding ASYPHPQSGQ [control peptide … (SEQ ID NO:14)], the binding result is on record as “binds”. Under SFEDYLAEYHG [control peptide … (SEQ ID NO:17)] stands “binds”; under WKHPQAGS [control peptide WKHPQAGS (SEQ ID NO:3)], “binds”. With GNSFDDWLNKG [control peptide … (SEQ ID NO:10)], the binding result is on record as “binds”. Regarding GWTHPMFEQKG [control peptide … (SEQ ID NO:2)], the binding entry is “binds”.

On to WWHPQNAV [control peptide WWHPQNAV (SEQ ID NO:11)], for which the binding result was “binds”. Consider ASWPHPQSGM [control peptide … (SEQ ID NO:7)], for which the binding result is given as “binds”. Under ASYDHPQGGR [control peptide … (SEQ ID NO:5)] stands “binds”; under RYHPQ [control peptide RYHPQ (SEQ ID NO:13)], “binds”; under WVHPQFQT [control peptide WVHPQFQT (SEQ ID NO:12)], “binds”. As for PGWKLAG (N-terminal Pro is acetylated (*P)) [truncated peptide *PGWKLAG (SEQ ID NO:20)], the entry is “binds”.
